The values below come from publication PMC2855512.

Sequences of proteins named here, by UniProt entry; tags and fusion partners are left off. A change or cut given only in a name is not applied to a line headed by its entry. Residues count along the entry.
UniProt P23242: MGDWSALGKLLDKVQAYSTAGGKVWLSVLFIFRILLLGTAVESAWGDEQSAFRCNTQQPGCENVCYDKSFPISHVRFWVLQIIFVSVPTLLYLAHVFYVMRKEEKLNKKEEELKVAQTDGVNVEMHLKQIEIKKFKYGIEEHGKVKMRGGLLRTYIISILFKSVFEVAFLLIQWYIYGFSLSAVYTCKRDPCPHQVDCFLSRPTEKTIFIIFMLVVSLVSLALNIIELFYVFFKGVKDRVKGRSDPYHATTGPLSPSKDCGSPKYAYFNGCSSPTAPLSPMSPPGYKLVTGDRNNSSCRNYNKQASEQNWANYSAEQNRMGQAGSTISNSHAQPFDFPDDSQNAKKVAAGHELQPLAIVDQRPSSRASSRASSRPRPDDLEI
GST-Cx43CT(241-382) (mouse (primer names mCx43)): residues 241-382 of P23242
UniProt P16054: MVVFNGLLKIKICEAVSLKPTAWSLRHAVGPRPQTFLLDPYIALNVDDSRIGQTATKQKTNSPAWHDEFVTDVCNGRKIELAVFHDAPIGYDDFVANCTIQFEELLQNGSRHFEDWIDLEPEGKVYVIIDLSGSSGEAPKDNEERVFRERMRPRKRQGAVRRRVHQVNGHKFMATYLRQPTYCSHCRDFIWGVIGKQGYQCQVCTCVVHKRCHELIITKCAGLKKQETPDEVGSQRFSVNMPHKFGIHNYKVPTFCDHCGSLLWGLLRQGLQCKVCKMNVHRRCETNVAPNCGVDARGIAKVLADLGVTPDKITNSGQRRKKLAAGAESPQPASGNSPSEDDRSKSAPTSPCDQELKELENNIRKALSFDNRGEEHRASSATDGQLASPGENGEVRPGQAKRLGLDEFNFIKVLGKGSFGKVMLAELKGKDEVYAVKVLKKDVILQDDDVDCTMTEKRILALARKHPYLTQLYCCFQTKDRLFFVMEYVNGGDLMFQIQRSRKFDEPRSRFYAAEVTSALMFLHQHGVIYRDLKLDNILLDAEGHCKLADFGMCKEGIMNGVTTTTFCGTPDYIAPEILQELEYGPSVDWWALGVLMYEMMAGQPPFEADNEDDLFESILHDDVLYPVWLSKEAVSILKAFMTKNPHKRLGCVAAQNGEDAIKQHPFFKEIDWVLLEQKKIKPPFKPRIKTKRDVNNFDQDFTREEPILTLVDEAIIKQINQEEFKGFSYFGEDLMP
UniProt P28867: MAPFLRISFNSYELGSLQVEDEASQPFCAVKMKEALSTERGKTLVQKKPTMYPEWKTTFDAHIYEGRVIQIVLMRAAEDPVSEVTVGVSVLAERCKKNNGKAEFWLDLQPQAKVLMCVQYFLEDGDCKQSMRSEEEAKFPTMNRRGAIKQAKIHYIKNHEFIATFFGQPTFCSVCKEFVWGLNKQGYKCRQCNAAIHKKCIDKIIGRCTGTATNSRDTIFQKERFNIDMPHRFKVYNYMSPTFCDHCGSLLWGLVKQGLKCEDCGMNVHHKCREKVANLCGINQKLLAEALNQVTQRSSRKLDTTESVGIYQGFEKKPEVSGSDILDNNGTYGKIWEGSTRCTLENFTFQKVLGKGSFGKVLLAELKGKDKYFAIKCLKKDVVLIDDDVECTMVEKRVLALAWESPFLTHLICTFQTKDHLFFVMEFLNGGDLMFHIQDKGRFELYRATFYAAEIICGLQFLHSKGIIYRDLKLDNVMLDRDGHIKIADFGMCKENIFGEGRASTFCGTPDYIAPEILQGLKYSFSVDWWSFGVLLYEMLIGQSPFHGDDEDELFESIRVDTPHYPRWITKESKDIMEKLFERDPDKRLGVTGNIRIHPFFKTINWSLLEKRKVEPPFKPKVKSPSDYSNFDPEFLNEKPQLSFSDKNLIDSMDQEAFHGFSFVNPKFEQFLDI

These are yes or no findings as the source states them, for the method shown. In cells and extracts the contact can be indirect. Some entries that bind do so weakly or less than the wild type.

The target in assay [1] is connexin43 (mouse (endogenous in MC3T3)) (UniProt P23242). As to the kind of experiment: co-IP; endogenous proteins in MC3T3 whole cell lysates (500 ug; IP buffer 50 mM Tris pH 8.0, 150 mM NaCl, 1.0% Triton-X-100), 2 ug antibody overnight at 4°C, protein A/G-agarose, five washes in cold PBS; western blot of supernatant and bead fractions; cells untreated or treated with 5 ng/ml FGF2 (0, 10, 20 min). In general terms: A western blot detects proteins with antibodies after separation by electrophoresis.

Assay [2] addresses PKCε (mouse (endogenous in MC3T3)) (UniProt P16054). Described as above.
Assay [3] concerns the target protein kinase C-delta (mouse (endogenous in MC3T3)) (UniProt P28867). The description is as above.
Assay [4] addresses GST-Cx43CT(241-382) (mouse (primer names mCx43)) (UniProt P23242). As to the kind of experiment: pull-down; purified GST or GST-Cx43CT(241-382) crosslinked to Glutathione Sepharose 4B beads (25 ul) incubated with 100 ug MC3T3 whole cell extract, 4 hours at 4°C; five washes in 50 mM HEPES pH 7.5, 1 mM EDTA, 150 mM NaCl, 10% glycerol, 0.1% Tween-20, 0.5 mM DTT; western blot with anti-PKCδ; only the target purified.

Regarding “PKCε (from UniProt P16054 1-737) (enzyme)”, the binding entry in assay [1] was “binds”.
For the substance connexin43 (from UniProt P23242 1-382), the binding result in assay [2] and in assay [3] was “binds” in each case.
For “protein kinase C-delta (from UniProt P28867 1-674) (enzyme)”, the binding entry in assay [1] and in assay [4] was “binds” throughout.
